For two substances, binding results are on record in article PMC2829546.

Amino acid sequences for entries named in this document (tags omitted). A change or cut given only in a name is not applied to a line headed by its entry. Chains listed by the source or under a name are the forms on record and can include a tag or linker. Residues count along the entry.
UniProt P31424, residues 21-1203: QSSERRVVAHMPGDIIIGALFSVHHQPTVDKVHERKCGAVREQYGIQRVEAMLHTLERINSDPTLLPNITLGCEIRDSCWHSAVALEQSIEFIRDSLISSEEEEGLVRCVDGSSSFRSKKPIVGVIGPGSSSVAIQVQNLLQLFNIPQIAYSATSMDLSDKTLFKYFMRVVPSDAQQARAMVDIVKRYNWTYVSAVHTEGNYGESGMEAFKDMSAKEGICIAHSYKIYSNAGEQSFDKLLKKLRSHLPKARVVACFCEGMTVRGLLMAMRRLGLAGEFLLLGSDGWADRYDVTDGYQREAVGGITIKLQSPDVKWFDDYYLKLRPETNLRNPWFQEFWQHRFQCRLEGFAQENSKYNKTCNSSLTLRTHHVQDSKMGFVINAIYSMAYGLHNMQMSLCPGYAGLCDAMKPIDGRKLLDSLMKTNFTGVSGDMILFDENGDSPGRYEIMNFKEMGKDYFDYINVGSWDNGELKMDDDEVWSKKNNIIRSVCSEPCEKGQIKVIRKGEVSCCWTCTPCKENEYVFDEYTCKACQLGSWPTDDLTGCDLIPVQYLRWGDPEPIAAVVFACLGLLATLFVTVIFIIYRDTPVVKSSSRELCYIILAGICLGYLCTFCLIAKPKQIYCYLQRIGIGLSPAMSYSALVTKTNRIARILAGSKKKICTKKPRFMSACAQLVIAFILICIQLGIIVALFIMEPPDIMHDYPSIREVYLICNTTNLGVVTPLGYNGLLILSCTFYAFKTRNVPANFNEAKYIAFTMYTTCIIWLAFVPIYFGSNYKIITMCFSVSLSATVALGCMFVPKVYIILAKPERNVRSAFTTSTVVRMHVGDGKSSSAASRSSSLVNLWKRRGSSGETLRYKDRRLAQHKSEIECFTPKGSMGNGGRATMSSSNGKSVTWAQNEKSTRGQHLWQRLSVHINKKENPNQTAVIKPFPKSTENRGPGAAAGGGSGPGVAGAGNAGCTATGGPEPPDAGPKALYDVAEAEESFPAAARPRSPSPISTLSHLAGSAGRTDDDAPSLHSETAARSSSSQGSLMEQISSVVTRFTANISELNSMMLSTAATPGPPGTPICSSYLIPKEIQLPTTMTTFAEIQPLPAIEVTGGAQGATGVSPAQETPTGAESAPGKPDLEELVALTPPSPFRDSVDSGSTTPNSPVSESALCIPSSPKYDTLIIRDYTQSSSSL
FLAG-mGluR1a (metabotropic glutamate receptor 1a) (P23385, residues 19-1199): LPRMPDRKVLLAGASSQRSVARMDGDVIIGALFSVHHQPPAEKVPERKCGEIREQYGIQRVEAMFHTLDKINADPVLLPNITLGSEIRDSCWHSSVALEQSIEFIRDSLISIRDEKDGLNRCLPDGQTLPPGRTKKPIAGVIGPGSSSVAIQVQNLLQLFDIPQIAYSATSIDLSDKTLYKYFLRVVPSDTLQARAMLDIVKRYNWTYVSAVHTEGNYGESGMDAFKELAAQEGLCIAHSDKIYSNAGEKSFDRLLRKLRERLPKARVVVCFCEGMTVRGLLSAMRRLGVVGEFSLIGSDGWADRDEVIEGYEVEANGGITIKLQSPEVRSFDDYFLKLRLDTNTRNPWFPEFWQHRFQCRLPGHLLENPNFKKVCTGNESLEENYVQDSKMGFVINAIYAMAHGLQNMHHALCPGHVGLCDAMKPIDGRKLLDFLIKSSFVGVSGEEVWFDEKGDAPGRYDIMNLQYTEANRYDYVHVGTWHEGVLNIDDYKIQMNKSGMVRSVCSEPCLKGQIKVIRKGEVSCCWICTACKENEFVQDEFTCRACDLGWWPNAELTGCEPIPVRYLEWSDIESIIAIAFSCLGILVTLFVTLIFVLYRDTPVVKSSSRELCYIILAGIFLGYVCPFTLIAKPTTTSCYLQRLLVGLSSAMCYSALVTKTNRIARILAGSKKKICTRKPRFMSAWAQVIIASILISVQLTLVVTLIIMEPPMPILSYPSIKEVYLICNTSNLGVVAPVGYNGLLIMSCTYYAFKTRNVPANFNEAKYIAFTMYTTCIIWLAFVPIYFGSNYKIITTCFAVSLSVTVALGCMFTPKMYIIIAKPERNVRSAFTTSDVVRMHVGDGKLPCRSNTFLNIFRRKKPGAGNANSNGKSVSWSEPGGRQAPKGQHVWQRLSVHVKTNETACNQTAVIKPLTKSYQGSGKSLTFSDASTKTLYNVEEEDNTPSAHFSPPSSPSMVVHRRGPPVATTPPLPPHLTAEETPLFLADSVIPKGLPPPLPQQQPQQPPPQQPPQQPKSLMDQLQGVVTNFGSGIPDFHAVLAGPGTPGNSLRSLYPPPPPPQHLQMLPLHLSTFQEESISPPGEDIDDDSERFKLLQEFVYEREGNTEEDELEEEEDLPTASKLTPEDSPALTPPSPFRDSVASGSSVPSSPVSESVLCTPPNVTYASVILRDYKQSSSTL
FLAG-mGluR1b (mGluR1b splice variant) (P23385, form named): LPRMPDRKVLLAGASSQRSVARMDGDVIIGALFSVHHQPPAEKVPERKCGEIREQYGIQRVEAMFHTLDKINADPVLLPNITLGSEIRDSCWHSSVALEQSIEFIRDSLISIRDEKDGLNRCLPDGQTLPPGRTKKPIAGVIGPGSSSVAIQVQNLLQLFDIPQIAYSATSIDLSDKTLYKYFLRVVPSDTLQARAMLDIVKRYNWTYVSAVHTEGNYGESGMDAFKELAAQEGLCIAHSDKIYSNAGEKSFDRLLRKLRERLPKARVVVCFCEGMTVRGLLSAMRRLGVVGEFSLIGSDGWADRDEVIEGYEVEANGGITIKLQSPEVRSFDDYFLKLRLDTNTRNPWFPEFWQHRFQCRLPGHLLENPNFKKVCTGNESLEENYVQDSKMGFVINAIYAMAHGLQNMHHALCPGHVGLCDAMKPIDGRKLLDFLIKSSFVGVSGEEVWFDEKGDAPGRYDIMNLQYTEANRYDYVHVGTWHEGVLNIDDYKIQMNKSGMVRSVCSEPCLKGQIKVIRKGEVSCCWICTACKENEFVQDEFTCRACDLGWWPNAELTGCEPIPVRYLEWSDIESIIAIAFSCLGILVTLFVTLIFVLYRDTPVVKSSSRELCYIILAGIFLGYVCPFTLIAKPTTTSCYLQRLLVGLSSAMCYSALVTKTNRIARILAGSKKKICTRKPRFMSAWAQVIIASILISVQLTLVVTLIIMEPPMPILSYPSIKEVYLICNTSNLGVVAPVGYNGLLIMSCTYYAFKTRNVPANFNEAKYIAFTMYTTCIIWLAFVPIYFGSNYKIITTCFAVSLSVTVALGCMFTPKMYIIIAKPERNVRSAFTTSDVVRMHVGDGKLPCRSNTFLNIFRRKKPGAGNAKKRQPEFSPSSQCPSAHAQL
UniProt P70600: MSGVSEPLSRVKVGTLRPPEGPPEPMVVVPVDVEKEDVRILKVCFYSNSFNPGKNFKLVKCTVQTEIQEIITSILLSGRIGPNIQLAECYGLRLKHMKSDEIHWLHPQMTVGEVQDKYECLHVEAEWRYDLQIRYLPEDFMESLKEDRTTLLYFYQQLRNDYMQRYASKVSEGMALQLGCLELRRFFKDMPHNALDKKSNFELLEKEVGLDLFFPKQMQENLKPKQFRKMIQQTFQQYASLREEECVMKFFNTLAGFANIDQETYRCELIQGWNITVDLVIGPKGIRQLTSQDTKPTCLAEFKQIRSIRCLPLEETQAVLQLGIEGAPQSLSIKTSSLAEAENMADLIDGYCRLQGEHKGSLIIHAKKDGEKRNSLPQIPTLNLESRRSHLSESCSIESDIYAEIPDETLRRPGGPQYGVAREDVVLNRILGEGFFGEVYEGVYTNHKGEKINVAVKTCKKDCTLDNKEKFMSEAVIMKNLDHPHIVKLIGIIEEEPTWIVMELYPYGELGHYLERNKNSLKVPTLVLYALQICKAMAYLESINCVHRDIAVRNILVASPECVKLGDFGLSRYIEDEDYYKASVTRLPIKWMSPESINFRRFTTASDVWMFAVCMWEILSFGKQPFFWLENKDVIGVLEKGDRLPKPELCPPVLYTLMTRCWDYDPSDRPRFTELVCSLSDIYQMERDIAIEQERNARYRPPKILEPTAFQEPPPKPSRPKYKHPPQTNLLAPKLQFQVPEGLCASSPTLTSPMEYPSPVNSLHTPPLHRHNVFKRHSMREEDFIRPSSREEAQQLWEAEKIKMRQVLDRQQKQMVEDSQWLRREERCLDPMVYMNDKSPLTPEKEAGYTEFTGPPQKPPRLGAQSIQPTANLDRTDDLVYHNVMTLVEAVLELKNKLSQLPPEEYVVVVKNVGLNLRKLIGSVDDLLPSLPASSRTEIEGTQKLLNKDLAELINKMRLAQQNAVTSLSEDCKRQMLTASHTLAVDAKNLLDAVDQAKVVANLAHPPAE
UniProt Q14289: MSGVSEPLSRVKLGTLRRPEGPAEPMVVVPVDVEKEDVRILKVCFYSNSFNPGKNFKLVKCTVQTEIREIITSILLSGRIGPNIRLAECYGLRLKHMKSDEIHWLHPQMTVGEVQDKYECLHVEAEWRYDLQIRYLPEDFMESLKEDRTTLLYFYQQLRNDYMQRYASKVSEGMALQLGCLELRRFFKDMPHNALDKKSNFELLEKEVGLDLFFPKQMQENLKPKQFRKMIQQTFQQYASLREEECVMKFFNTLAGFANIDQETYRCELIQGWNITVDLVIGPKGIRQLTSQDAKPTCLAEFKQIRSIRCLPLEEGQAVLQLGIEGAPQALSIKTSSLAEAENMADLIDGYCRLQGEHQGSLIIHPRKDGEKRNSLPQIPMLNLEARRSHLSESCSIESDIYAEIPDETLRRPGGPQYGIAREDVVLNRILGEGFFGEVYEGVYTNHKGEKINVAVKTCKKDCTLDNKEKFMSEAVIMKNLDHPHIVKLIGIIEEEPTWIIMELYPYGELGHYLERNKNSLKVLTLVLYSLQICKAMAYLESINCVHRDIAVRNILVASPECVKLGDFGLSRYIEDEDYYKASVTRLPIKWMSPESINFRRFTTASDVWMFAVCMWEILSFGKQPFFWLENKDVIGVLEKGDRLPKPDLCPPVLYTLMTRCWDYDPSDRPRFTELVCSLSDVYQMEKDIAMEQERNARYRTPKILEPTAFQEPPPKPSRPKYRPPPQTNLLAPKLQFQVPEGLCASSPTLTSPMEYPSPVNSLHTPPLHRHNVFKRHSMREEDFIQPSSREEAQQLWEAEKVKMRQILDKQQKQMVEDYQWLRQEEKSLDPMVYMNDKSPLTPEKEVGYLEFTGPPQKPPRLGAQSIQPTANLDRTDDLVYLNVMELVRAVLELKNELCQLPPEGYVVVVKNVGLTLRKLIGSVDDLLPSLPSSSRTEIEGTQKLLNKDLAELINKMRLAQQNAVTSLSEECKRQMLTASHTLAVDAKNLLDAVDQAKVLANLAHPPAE

No constants are given. Whether binding was seen depends on the method and setting. Binding seen in cells or lysates may run through a third protein. Some binding calls cover weakened binding; strength is not graded here.

In experiment [1] the target is mGluR5, endogenous in rat brain (rat (endogenous in rat brain)) (UniProt P31424). Kind of experiment: co-IP; adult rat whole brain lysate, 500-1000 ug supernatant protein; polyclonal anti-mGluR1a or anti-mGluR5a rabbit antibodies and protein G-Sepharose beads overnight at 4 C; blot for Pyk2.
The target of experiment [2] is mGluR1, endogenous in rat brain (rat (endogenous in rat brain)) (UniProt P23385). Described as above.
Experiment [3] has as its target FLAG-mGluR1a (metabotropic glutamate receptor 1a) (UniProt P23385). Kind of experiment: co-IP; HEK293 cells transiently transfected; 500-1000 ug lysate protein; lysis buffer 25 mM HEPES pH 7.5, 300 mM NaCl, 1.5 mM MgCl2, 0.2 mM EDTA, 0.1% Triton X-100; FLAG-tagged mGluR1 immunoprecipitated with FLAG Sepharose beads overnight at 4 C; cells untreated or treated with 30 uM quisqualate (0-30 min); GDP-AlF4- treatment in Fig. 4C.

Experiment [4] concerns the target FLAG-mGluR1b (mGluR1b splice variant) (UniProt P23385). The experiment is described as above.

Consider “Pyk2, endogenous in rat brain (from UniProt P70600 1-1009) (enzyme)”, for which the binding result in experiment [1] and in experiment [2] was “binds” throughout.

Regarding “HA-Pyk2 (proline-rich tyrosine kinase 2), expressed in HEK293 cells (from UniProt Q14289 1-1009) (enzyme)”, the binding result in experiment [3] and in experiment [4] was “binds” throughout.
